# Results as given in PubChem BioAssay AID1347075 (National Center for Advancing Translational Sciences (NCATS), 2019).
# The campaign covered roughly 400,000 compounds. About 5,500 (1.4%) were called active. Inconclusive results, whose numbers are uncertain, are shown with a selection of clear calls. Calls come from the whole dose curve; as a rule, active = well fitted cell-killing curve with a large enough effect; inconclusive = small, poorly fitted or top-dose-only effect, or effect the other way; inactive = flat fitted curve, though single readings scatter. Potencies of inconclusive entries are doubtful fits and often do not repeat.
# Test: qHTS assay for MDR1-selective chemotherapeutics: Primary screen using the parental adenocarcinoma cell KB-3-1; note: nearly all actives have a fitted effect of over 60% in size
# Conditions: KB-3-1 viability, CellTiter-Glo ATP luminescence, 72 h; activity change, negative = cytotoxic: at 46.1 µM (top of the series)
# In short: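 72 h, 37 °C compound treatment of KB-3-1 parental cells; CellTiter-Glo added, 10 min, luminescence read. Data corrected against DMSO-only plates and normalized before curve fitting.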
# % is set by controls: 0 for no effect and ±100 for the full control effect; potency is the fitted concentration of half-maximal effect.
SMILES,Potency,"activity change, negative = cytotoxic"
Cc1nc2c(-c3ccccc3)c(C)nn2c(N)c1-c1ccccc1,"inconclusive: 29.1 µM [cytotoxic, single point]",
CN(C)c1ccc(C(I)C(I)c2ccnc3ccccc23)cc1 (stereo not given),"inconclusive: 29.1 µM [cytotoxic, single point]",
O=C(N/N=C/c1ccc([N+](=O)[O-])cc1)c1ccc(COc2ccccc2-c2ccccc2)cc1,"inconclusive: 23.1 µM [cytotoxic, partial curve, poor fit]",
CCCCNC(=O)[C@@H]1CC=C[C@@H]2CCN(CCCC)C(=O)[C@@H]21,inactive,
Cc1ccc(NS(=O)(=O)c2ccc3nc(-c4ccccc4)[nH]c3c2)cc1Cl,"inconclusive: 29.1 µM [cytotoxic, single point]",
CC(C)CCN(N=O)[C@@H](Cc1ccccc1)CN(N=O)[C@@H](Cc1ccccc1)CN(C)N=O,"inconclusive: 20.6 µM [cytotoxic, partial curve, poor fit]",
O=C(CO)c1c[nH]c2ccccc12,"inconclusive: 10.3 µM [rising, partial curve]",
Cc1nc(N2CCN(c3ccccc3O)CC2)c2c(-c3ccccc3)csc2n1,"inconclusive: 2.06 µM [rising, partial curve, poor fit]",
O=C(Cc1ccc(-n2c(=O)c3ccccc3n(Cc3ccccc3F)c2=O)cc1)NCC1CCCO1 (stereo not given),inactive,
COc1ccc(NS(=O)(=O)c2ccc(NC(=O)c3ccc(N(C)S(C)(=O)=O)cc3)cc2)c(OC)c1,active: 4.61 µM,
CC(=O)c1c(C)[nH]c(C(=O)Nc2cc(S(=O)(=O)N3CCCCC3)ccc2C)c1C,"inconclusive: 23.1 µM [cytotoxic, single point]",
CNC[C@@H](C)NC[C@@H](Cc1ccccc1)NCCc1ccccc1,"inconclusive: 29.1 µM [cytotoxic, single point]",
C=CCn1c(SCCOc2ccc(OC)cc2)nnc1C(C)NC(=O)Cc1ccc(OC)cc1 (stereo not given),"inconclusive: 29.1 µM [cytotoxic, single point]",
CCOc1ccc(NC(=O)CS(=O)CC(=O)N(CC(=O)NC(C)(C)C)C2CCCC2)cc1 (stereo not given),inactive,
O=S1(=O)N=C(Sc2cccc3cccnc23)c2ccccc21,active: 9.2 µM,
CCOC(=O)c1c(N)n(-c2ccc(N)cc2)c2nc3ccccc3nc12,inactive,
NC(=S)N/N=C\c1ccc(-c2cccc(Cl)c2Cl)o1,active: 5.8 µM,
CC(C)C[C@H](NC(=O)c1nc[nH]c1C(=O)N[C@@H](CC(C)C)C(=O)OCc1ccccc1)C(=O)OCc1ccccc1,"inconclusive: 18.4 µM [cytotoxic, partial curve]",
COc1cc2ccccc2cc1C(=O)N1CC(C)CC(C)C1 (stereo not given),"inconclusive: 29.1 µM [cytotoxic, single point]",
Cc1ccccc1SCC(=O)N/N=C/c1ccc(F)cc1,inactive,
CCCN(Cc1cccs1)C(=O)Nc1cc(C)cc(C)c1,inactive,
O=C(/C=C/c1cccs1)Nc1nc(-c2ccccc2)cs1,"inconclusive: 20.6 µM [cytotoxic, single point]",
COc1ccc(CNc2nc(NCc3ccc(OC)cc3)c3ncn(C4CCCC4)c3n2)cc1,active: 6.51 µM,
O=[N+]([O-])c1ccc(Sc2cccc[n+]2[O-])c2nonc12,"inconclusive: 10.3 µM [cytotoxic, partial curve, poor fit]",

SMILES,Potency,"activity change, negative = cytotoxic"
Cc1ccc(NC(=O)c2ccc3c(c2)OCCO3)nc1,"inconclusive: 32.6 µM [cytotoxic, partial curve, poor fit]",
O=S(Cc1ccc(Br)cc1)Cc1nnc(SCc2ccc(Cl)cc2)n1-c1ccccc1 (stereo not given),"inconclusive: 25.9 µM [cytotoxic, partial curve, poor fit]",
CCOc1cc(-c2cc(-c3ccc(C)o3)nc(N)c2C#N)ccc1O,"inconclusive: 29.1 µM [cytotoxic, single point]",
CCOc1ccc(NC(=O)/C(C#N)=C\c2ccc(N3CCCC3)c(C)c2)cc1,inactive,
CCCN1C(=O)c2ccccc2NC1c1ccc(OC)cc1O (stereo not given),"inconclusive: 3.66 µM [cytotoxic, full curve]",
O=C1CC(Nc2ccc(N3CCOCC3)cc2)C(=O)N1c1ccccc1 (stereo not given),inactive,
CC(C)C[C@H](NC(=O)c1nc[nH]c1C(=O)NC(c1ccccc1)c1ccccc1)C(=O)OC(C)(C)C,"inconclusive: 3.66 µM [cytotoxic, full curve]",
COc1ccc(-c2nc3ccccc3o2)cc1NC(=O)c1cccc2c(Cl)cccc12,"inconclusive: 23.1 µM [rising, single point]",
CCOC(=O)c1[nH]c2ccccc2c1NC(=O)c1ccc(S(=O)(=O)N(C)C)cc1,inactive,
CN(C)S(=O)(=O)c1cccc(NC(=O)c2cccc(S(=O)(=O)N3CCCCCC3)c2)c1,"inconclusive: 23.1 µM [cytotoxic, partial curve, poor fit]",
O=C(COc1coc(CN2CCN(c3ccc(F)cc3)CC2)cc1=O)NC1CCCCC1,"inconclusive: 18.4 µM [cytotoxic, single point]",
COc1cc(C(=S)N2CCOCC2)cc(Br)c1OS(=O)(=O)c1ccccc1,inactive,
COc1ccccc1S(=O)(=O)N(C)C[C@@H]1OCc2cn(nn2)CCCC(=O)N([C@@H](C)CO)C[C@H]1C,inactive,
O=C(CSc1nnc(-c2csc3c2CCCC3)o1)Nc1ccccc1,"inconclusive: 18.4 µM [cytotoxic, single point]",
Cc1ccc(S(=O)(=O)N2CCC(=O)c3ccccc32)cc1,inactive,
Oc1ccccc1/C=N/NC(=S)NC1CC2CC1C1C=CCC21 (stereo not given),"inconclusive: 29.1 µM [cytotoxic, single point]",
CC(O)CNCCCOc1ccc(Cl)cc1C(C)(C)C (stereo not given),"inconclusive: 29.1 µM [cytotoxic, single point]",
N#CC1=C(N)Oc2cc(O)ccc2C1c1cccnc1 (stereo not given),"inconclusive: 29.1 µM [rising, partial curve, poor fit]",
CCOc1ccc(NC(=O)CCN2C(=S)NC(C)(C)CC2C)cc1 (stereo not given),inactive,
Cc1ccc(C)c(OCCn2c(=O)c3c(ncn3C3CCCC3)n(Cc3ccccc3)c2=O)c1,"inconclusive: 18.4 µM [cytotoxic, partial curve]",
COc1ccccc1NS(=O)(=O)c1cccc(C(=O)N/N=C/c2cn(-c3ccccc3)nc2-c2ccccc2)c1,"inconclusive: 29.1 µM [cytotoxic, single point]",
Cc1cc(C)n2c(Nc3ccc4c(c3)OCCO4)c(-c3cc4ccccc4o3)nc2n1,"inconclusive: 29.1 µM [cytotoxic, single point]",
CNC(=O)c1cc2ccccc2o1,inactive,
CCC(C)(C)c1ccc(OCCCC[n+]2cccc(C)c2)c(C(C)(C)CC)c1,active: 3.26 µM,

SMILES,Potency,"activity change, negative = cytotoxic"
COc1ccccc1-c1noc(-c2ccncc2)n1,inactive,
COc1cc(/C=N/NC(=O)c2cc(-c3cccn3C)n[nH]2)cc(OC)c1OC,"inconclusive: 18.4 µM [rising, partial curve]",
S=C(NCCN1CCOCC1)Nc1ccc(Cl)c(Cl)c1,inactive,
Cc1cccc(C(=O)NCC(=O)NNC(=O)c2ccccc2O)c1,inactive,
COc1ccc(CCC(=O)Nc2c(-c3ccc(N(C)C)cc3)[nH][nH]c2=O)cc1,"inconclusive: 29.1 µM [cytotoxic, single point]",
Cc1csc(=O)n1CC(=O)OCC(=O)c1c(N)n(C)c(=O)n(C)c1=O,inactive,
CCOc1ccc2nc3cc(N=Nc4ccc(N)nc4N)ccc3c(N)c2c1,"inconclusive: 29.1 µM [cytotoxic, single point]",
CCOC(=O)C1CCCN(C(=O)c2ccccc2NC(=O)c2nsc3ccccc23)C1 (stereo not given),inactive,
O=C(/C=C/c1ccc([N+](=O)[O-])s1)N1CCCCC1,active: 14.6 µM,
Cc1ccccc1Cn1nnc2c(=O)[nH]c(C3CCCN(C(=O)c4ccc(C(C)(C)C)cc4)C3)nc21 (stereo not given),"inconclusive: 23.1 µM [cytotoxic, partial curve, poor fit]",
CN(C(=O)COC(=O)c1ccc2c(c1)OCO2)c1c(N)n(Cc2ccccc2)c(=O)[nH]c1=O,inactive,
Cc1ccc(NC(=O)CN(C)C(=O)C(Sc2ccccc2)c2ccccc2)cc1 (stereo not given),"inconclusive: 14.6 µM [cytotoxic, partial curve, poor fit]",
COc1cc(C2C(C#N)=C(N)Oc3cc4c(cc32)OCO4)cc(OC)c1OC (stereo not given),active: 0.0052 µM,
Cc1cc(C)n2nc(C(=O)OCC(=O)N(C)Cc3ccccc3)nc2n1,inactive,
Cc1ccc(S(=O)(=O)N2C(=O)[C@@H]3Cc4ccccc4CN3C2=O)cc1,inactive,
CCCn1c(=O)c(C(=O)NNC(=O)c2ccccc2Cl)c(O)c2ccccc21,"inconclusive: 25.9 µM [cytotoxic, single point]",
COc1cc(C2CC(=O)Nc3n[nH]c(-c4ccccc4)c32)cc(OC)c1OC (stereo not given),active: 20.6 µM,
CCCCNc1c(-c2ccc(F)cc2)nc2nc(C)cc(C)n12,"inconclusive: 18.4 µM [cytotoxic, single point]",
CCCCC(CC)COP(=O)(OCC(CC)CCCC)OCC(CC)CCCC (stereo not given),,inconclusive: -0.0383%
Cc1ccccc1Nc1nc(N)c2ccccc2n1,"inconclusive: 18.4 µM [cytotoxic, single point]",
COC(=O)c1c(NC(=O)CSc2nncs2)sc2c1CCCCC2,"inconclusive: 0.92 µM [cytotoxic, partial curve]",
Cc1ccc(O)c(C(CC(=O)NC(C)C)c2ccccc2)c1 (stereo not given),"inconclusive: 32.6 µM [rising, single point]",

# Record cards, from the list above:
# Cc1csc(=O)n1CC(=O)OCC(=O)c1c(N)n(C)c(=O)n(C)c1=O is entered as Potency: inactive
# CN(C(=O)COC(=O)c1ccc2c(c1)OCO2)c1c(N)n(Cc2ccccc2)c(=O)[nH]c1=O is entered as Potency: inactive
